For 64 compounds, AC50 results are on record in PubChem BioAssay AID493014 (National Center for Advancing Translational Sciences (NCATS), 2011).

The structures appear in SMILES notation. Where “and” joins values, the source holds several entries; their conditions need not be identical. Equal values may be shown once. The list shows a part of the results. The main result of the screen is listed elsewhere. These columns were measured beside it and carry no call. The list favours compounds with an active or inconclusive main result. Potencies come from curve fits of mixed quality, noted in brackets.

The test can be described thus: qHTS Assay to Find Inhibitors of Chronic Active B-Cell Receptor Signaling. As to conditions: ABC-DLBCL IkBa-CBG/CBR reporter, luminescence ratio (green luciferase fused to IkBa over red control in TMD8 lymphoma cells), 4 h. In short, it runs like this:
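Doxycycline induced both beetle luciferases in TMD8 lymphoma cells; IKK-driven degradation limits the IkappaBalpha-fused green signal, while red luminescence normalises for cell number and nonspecific effects. Compounds tested up to 46 uM, 4 hrs.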
A general note: Quantitative high-throughput screening tests each substance at several concentrations.

The mark [1] stands for this setting: measured here: CBR red luminescence, cell number.
Setting [2] is: measured here: IkBa-CBG green luminescence.

Usually AC50 stands for the concentration at which the activity in the assay is half-maximal. On to `CCC(C)n1c(SCc2ccccc2)nc2ccsc2c1=O` (stereo unspecified), for which the AC50 under setting [1] was 11.6 µM [rising, partial curve]. On the same count and under the same terms, then `O=C(O)c1ccc(N/N=C/c2cccc(F)c2)cc1`, with 0.0291 µM [falling, full curve]. As to `CN(c1ccccc1)S(=O)(=O)c1cccc(C(=O)NCCCN2CCCC2=O)c1`, the concentration at half-maximal activity (AC50) under setting [1] is 3.66 µM [rising, single point]. Still for that read-out and setting: for `CCOC(=O)c1nnn(-c2nonc2-n2cccc2)c1CN1CCC(C(=O)OCC)CC1` the value was 35.5 µM [falling, single point]. As for `CC(=O)Nc1ccc(S(=O)(=O)NCCc2ccc(S(N)(=O)=O)cc2)cc1`, the concentration at half-maximal activity (AC50) under setting [1] is 0.092 µM [falling, full curve, poor fit]. As to `C=C1C(=O)O[C@H]2[C@H]1[C@@H](O)CC(=C)[C@@H]1CC(=O)[C@@H](C)[C@H]21`, the concentration at half-maximal activity (AC50) under setting [1] was 10 µM [falling, partial curve, poor fit].

Consider `COc1ccc(Cc2n[nH]c(=S)n2NC(=O)Nc2ccc(Cl)c(Cl)c2)cc1`, for which the concentration at half-maximal activity (AC50) under setting [1] was 35.5 µM [falling, single point]. On to `O=C(O)c1ccc(N/N=C/c2cn(-c3ccccc3)nc2-c2cccs2)cc1`, for which, under setting [1], the AC50 is 15.8 µM [falling, partial curve, poor fit].

Regarding `Cc1cccn2c(=O)c3cc(C(=O)NCC4CCCO4)c(=N)n(Cc4cccnc4)c3nc12` (stereo unspecified), under setting [1], the AC50 was 0.164 µM [falling, full curve, poor fit].

Turning to `COc1ccc(C)cc1NC(=O)CCCN1C(=O)CCC1=O`, the half-maximal activity concentration (AC50) under setting [1] is 25.9 µM [rising, single point].

As to `CCc1nc2ccc(C(=O)O)cc2nc1CC`, the AC50 under setting [1] was 2.31 µM [falling, full curve]. Consider `COc1ccc(NC(=O)c2nc(S(=O)(=O)Cc3cccc(C)c3)ncc2Cl)c(OC)c1`, for which the AC50 under setting [1] was 3.98 µM [falling, full curve]. Regarding `COCC(C)N1CC(O)=C(c2nc(-c3ccc(Cl)cc3)cs2)C1=N` (stereo unspecified), the AC50 under setting [1] is 3.16 µM [rising, full curve, poor fit]. On to `N=C1S/C(=C\c2ccco2)C(=O)N1c1ccc2c(c1)OCO2`, for which the AC50 under setting [1] was 35.5 µM [falling, single point]. On to `C[C@H](N)C(=O)NC[C@H]1O[C@@H](n2cnc3c(N)ncnc32)[C@H](O)[C@@H]1O`, for which the concentration at half-maximal activity (AC50) under setting [1] is 1.16 µM [rising, full curve, poor fit].

Regarding `O=C(Nc1nnc(SCc2ccccc2F)s1)C1=COCCO1`, the AC50 under setting [1] is 0.794 µM [rising, full curve, poor fit]. For the compound `CCn1cc(C(=O)N2CCCC2)c(=O)c2cc(S(=O)(=O)N3CC(C)CC(C)C3)ccc21` (stereo unspecified), the half-maximal activity concentration (AC50) under setting [1] was 28.2 µM [rising, single point]. For `CCc1ccc(/C=C/C(=O)c2c(C)cc(C)[nH]c2=O)cc1`, the half-maximal activity concentration (AC50) under setting [1] was 16.4 µM [falling, single point]. Take `O=C(Nc1ccc2c(c1)OCCO2)c1cc2ccccc2o1`: under setting [1], the concentration at half-maximal activity (AC50) is 8.91 µM [falling, partial curve, poor fit]. As to `CCNC(=S)N/N=C/c1cccc(C)c1`, the half-maximal activity concentration (AC50) under setting [2] is 20.6 µM [falling, single point]. As to `COc1ccc(NC(=S)Nc2cc(C)cc(C)n2)cc1OC`, the AC50 under setting [1] was 2.91 µM [rising, full curve, poor fit]. For `Fc1cccc(NC(=S)NCc2ccccc2Cl)c1`, the AC50 under setting [1] is 0.891 µM [rising, partial curve]. `COc1ccc(-c2nc(C#N)c(NCc3cccnc3)o2)cc1OC`: the half-maximal activity concentration (AC50) under setting [2] is 14.1 µM [falling, partial curve, poor fit]. As for `COC(=O)c1ccc(CNC(=O)c2ccc(OC)c(S(=O)(=O)NC3CCCC3)c2)cc1`, the AC50 under setting [1] is 32.6 µM [falling, single point].

On to `COc1ccccc1CCC(=O)N(C)CC(=O)Nc1ccc(Cl)c(C(F)(F)F)c1`, for which the concentration at half-maximal activity (AC50) under setting [1] was 31.6 µM [falling, single point]. Still for that read-out and setting: then `CSc1ccccc1NC(=O)c1cc(CC(C)C)on1`, with 0.731 µM [falling, partial curve, poor fit]; and `N#Cc1cccc(S(=O)(=O)Nc2c(NC3CCCCC3)c3ccccc3oc2=O)c1`, with 14.1 µM [falling, partial curve]. `CCc1ccc(C(C(=O)NC2CCCCC2)N(C(=O)c2ccccn2)c2cccnc2)cc1` (stereo unspecified): the AC50 under setting [1] was 35.5 µM [rising, single point].

Take `O=C(Nc1nnc(-c2cccnc2)o1)c1cccc([N+](=O)[O-])c1`: the AC50 under setting [1] was 6.31 µM [falling, full curve, poor fit].

As to `COc1cc(C(=O)Nc2ccc3ccccc3c2)cc(OC)c1OC`, the AC50 runs as follows: under setting [1], 35.5 µM [rising, single point]; under setting [2], 25.1 µM [falling, single point].

In the case of `NC(=O)NC(=O)COC(=O)c1cccnc1Nc1ccccc1F`, under setting [1], the half-maximal activity concentration (AC50) was 5.62 µM [rising, single point]. Take `COc1ccc2cc3c(N)nn(C(=O)c4ccccc4Cl)c3nc2c1`: under setting [1], the half-maximal activity concentration (AC50) is 0.355 µM [falling, full curve, poor fit]. As to `CCCc1ccc(C(=O)NNC(=O)c2ccc(Br)cc2)cc1`, under setting [1], the concentration at half-maximal activity (AC50) is 5.17 µM [rising, full curve]. Regarding `O=C(CC1Nc2ccccc2NC1=O)NC1CCCCC1` (stereo unspecified), under setting [1], the concentration at half-maximal activity (AC50) is 35.5 µM [falling, single point]. For the compound `COC(=O)c1ccc(NC(=O)c2ccc3c(c2)OCO3)cc1`, under setting [1], the AC50 was 0.146 µM [falling, full curve, poor fit]. Consider `CC(NC(=O)c1ccccc1Cl)C(=O)O` (stereo unspecified), for which the concentration at half-maximal activity (AC50) under setting [1] is 2.59 µM [falling, partial curve, poor fit]. Regarding `N#Cc1ccsc1NC(=O)COc1ccc(-c2nnco2)cc1`, under setting [1], the half-maximal activity concentration (AC50) was 14.1 µM [falling, single point]. Regarding `CCCNC(=O)CNC(=S)N(Cc1cc(OC)c(OC)c(OC)c1)C1CCCC1`, the AC50 under setting [1] is 29.1 µM [rising, single point].

`CC1CC(=O)N(CC(=O)Nc2ccc3c(c2)OCO3)c2ccccc2S1` (stereo unspecified): the AC50 under setting [1] was 3.98 µM [falling, single point]. `CC(=O)Oc1ccc(-c2cccc(C(=O)NCCO)c2)cc1`: the concentration at half-maximal activity (AC50) under setting [1] is 35.5 µM [falling, single point]. The same measure, in the same setting: then `CCCOc1ccc2nc(C)c(CCC)c(SC(=N)N)c2c1`, with 8.91 µM [rising, partial curve, poor fit]; and `O=C(CNC(=O)N1CC(=O)Nc2ccccc21)Nc1cc(Cl)ccc1Cl`, with 3.98 µM [falling, partial curve, poor fit].

Turning to `COCCCNc1nc(N)c([N+](=O)[O-])c(NCc2ccccc2)n1`, the concentration at half-maximal activity (AC50) under setting [1] was 20 µM [rising, single point]. On the same count and under the same terms, then `O=C(COC(=O)c1cccc(NS(=O)(=O)c2ccc(F)c(F)c2)c1)NC(=O)NC1CCCC1`, with 23.1 µM [falling, single point]; and `Cc1ccc(C)c(C(=O)COc2ccccc2[N+](=O)[O-])c1`, with 29.1 µM [falling, single point].

Take `O=C(c1cnc(N2CCN(c3ncccn3)CC2)c2ccccc12)N1CCN(c2ccccn2)CC1`: the half-maximal activity concentration (AC50) under setting [1] is 22.4 µM [falling, single point]. Take `CCOC(=O)c1c(NC(=O)C2COc3ccccc3O2)sc(C(C)=O)c1C` (stereo unspecified): the AC50 under setting [1] was 32.6 µM [rising, single point]. For the compound `CCOC(=O)c1cc([N+](=O)[O-])c([N+](=O)[O-])cc1NC(C)=O`, under setting [1], the AC50 was 29.1 µM [falling, single point]. Consider `CCOC(=O)C1CCN(C(c2ccccn2)c2c(C)[nH]c3ccccc23)CC1` (stereo unspecified), for which the AC50 under setting [1] is 1.64 µM [falling, full curve]. For the compound `CC(C)(C)C1CCC(=NNC(=O)c2ccc(Br)o2)CC1` (stereo unspecified), under setting [1], the concentration at half-maximal activity (AC50) is 29.1 µM [falling, single point].

For the compound `COc1cccc(NC(=O)c2ccc3c(c2)N(CC(=O)N2CCCCC2)C(=O)C(C)(C)O3)c1`, the concentration at half-maximal activity (AC50) under setting [1] is 12.6 µM [falling, partial curve, poor fit].

With `COc1ccc2c(c1)[nH]c1c(=O)n(CC3CCCO3)cnc12` (stereo unspecified), the half-maximal activity concentration (AC50) under setting [1] was 3.26 µM [falling, full curve, poor fit]. Take `CCCN1CNC(=S)N(c2ccccc2C)C1`: the AC50 under setting [1] was 35.5 µM [falling, single point].

On to `CC(=O)c1c(C)[nH]c(C(=O)OCC(=O)Nc2ccc(Cl)c(S(=O)(=O)N(C)C)c2)c1C`, for which the AC50 under setting [1] is 12.6 µM [falling, partial curve]. Take `CC(C)(C)C(=O)/C=C/Nc1ccccc1O`: the AC50 under setting [1] was 2.31 µM [falling, partial curve, poor fit]. Regarding `CCc1ccc(CNC(=O)Cn2nc(-c3ccc(C)cc3)ccc2=O)cc1`, the AC50 under setting [1] was 794 nM [rising, full curve, poor fit] and 35.5 µM [falling, partial curve, poor fit]. Regarding `CCn1c(SCc2ccc(C#N)cc2)nnc1-c1ccc(S(=O)(=O)N2CCCCC2)cc1`, the AC50 under setting [1] was 35.5 µM [falling, single point]. For the compound `Cc1cccc(S(=O)(=O)c2c(N)n(/N=C/c3cccnc3)c3nc4ccccc4nc23)c1`, the concentration at half-maximal activity (AC50) under setting [1] was 2.82 µM [falling, single point]. For `CNC(=S)N/N=C(\C)c1cccc(C(F)(F)F)c1`, the AC50 under setting [1] is 14.1 µM [rising, single point] and the AC50 under setting [2] is 25.1 µM [falling, single point].

In the case of `Cc1ccc(C2=C/C(=C/c3cccs3)C(=O)O2)cc1`, the concentration at half-maximal activity (AC50) under setting [1] is 1.46 µM [falling, full curve].

On to `COc1ccccc1N1CCN(C(=O)CCS(=O)(=O)c2ccc3c(c2)oc(=O)n3C)CC1`, for which, under setting [1], the AC50 was 20 µM [rising, single point]. `Fc1ccc(-n2ncc3c(Nc4ccc5c(c4)OCCO5)ncnc32)cc1`: the AC50 under setting [1] was 7.08 µM [falling, full curve]. With `NC(=O)COc1ccc2cc(-c3ccccc3)c(=O)oc2c1`, the half-maximal activity concentration (AC50) under setting [1] was 11.2 µM [falling, single point]. On the same count and under the same terms, then `COc1cc(C=O)ccc1OCCOCCOc1cc(C)ccc1Cl`, with 10 µM [rising, partial curve].
